Measurements: patent US9642861B2, “Methods of treating oral mucositis” (priority 2006, dated 2017)
At least one structure is not confirmed: it was looked up by name or label, or the drawing left a doubt.

Tested on: oral mucositis induced in hamsters by acute radiation (40 Gy to left buccal cheek pouch)
Assay: ACT-03 (Example 2): acute radiation model of oral mucositis in hamsters, mucositis scoring
Assay type: in vivo, Syrian Golden Hamsters
Description: The acute radiation model in hamsters, developed by the Principal Investigator, has proven to be an accurate, efficient and cost-effective technique to provide a preliminary evaluation of anti-mucositis compounds (9). The course of mucositis in this model is well defined and results in peak scores approximately 14-16 Days following radiation. The acute model has little systemic toxicity, resulting in few hamster deaths, thus permitting the use of smaller groups (N=7-8) for initial efficacy studies. It has also been used to study specific mechanistic elements in the pathogenesis of mucositis. Molecules that show efficacy in the acute radiation model may be further evaluated in the more complex models of fractionated radiation, chemotherapy, or concomitant therapy. […]
Seventy-two male Syrian Golden Hamsters were divided randomly into 9 groups of 8 animals and given an acute radiation dose of 40 Gy directed to their left buccal cheek pouch. […] Mucositis was evaluated clinically starting on Day 6, and continued on alternate days until day 28.
The grade of mucositis was scored, beginning on day 6, and for every second day thereafter, through and including day 28 (for scoring scheme, see Table 6 and FIG. 8). The effect on mucositis of each drug treatment compared to ip vehicle-treated controls was assessed according to the following parameters: […]

[Cl-].[Cl-].[Mn+2].c1cc2nc(c1)CN[C@@H]1CCCC[C@H]1NCCN[C@@H]1CCCC[C@H]1NC2 [M40403]
day of peak mean mucositis score (group 3: ip 3 mg/kg twice daily day −1 to 3): 16 and 18 day | day of peak mean mucositis score (group 9: ip 30 mg/kg twice daily on day 0 and day 7): 16 and 18 day
